# Experimental data as given in article PMC12431657, “Discovery and mechanistic insights of dibenzoylmethane as a broad spectrum inhibitor of coronavirus” (PLOS Pathogens, 2025).
# Counter-ions that a name gives are not always drawn. Like-named read-outs stand apart in the source and are kept apart here. Out of some 3,300 compounds screened, about 95 (3%) showed an effect of 50% or more. The list shows a part of the results.
# Test system: HCoV-229E
# Set-up: species or system Huh-7; HTS, protection from HCoV-229E induced cell death, luminescent cell viability (CellCounting-Lite 2.0), inhibition rate
# Conditions: 24 h post infection, 1 h compound pre-incubation, 10 µM, inhibitor
compound,measurement,setting,value
COc1cc(O)c2c(c1)O[C@H](c1ccccc1)CC2=O [Pinostrobin],229E Inhibition rate,,31.9%
C/C=C(/C)C(=O)O[C@@H]1c2c(ccc3ccc(=O)oc23)OC(C)(C)[C@@H]1OC(=O)/C(C)=C\C [(-)-Anomalin],229E Inhibition rate,,51.7%
COc1ccc(C2CC(=O)c3c(O)cc(O)cc3O2)cc1O (racemic) [(Rac)-Hesperetin],229E Inhibition rate,,10.6%
CC(C)=CCC[C@@](O)(CO[C@@H]1O[C@H](CO)[C@@H](O)[C@H](O)[C@H]1O)[C@H]1CC[C@]2(C)[C@@H]1CC[C@@H]1[C@@]3(C=O)CC[C@H](O[C@@H]4OC[C@H](O)[C@H](O[C@@H]5OC[C@@H](O)[C@H](O)[C@H]5O)[C@H]4O[C@@H]4O[C@@H](C)[C@H](O)[C@@H](O)[C@H]4O)C(C)(C)[C@@H]3CC[C@]12C [Gypenoside XLIX],229E Inhibition rate,,12.9%
C[C@@H]1O[C@@H](OC[C@H]2O[C@@H](Oc3c(-c4ccc(O)cc4)oc4cc(O)cc(O)c4c3=O)[C@H](O[C@@H]3O[C@H](CO)[C@@H](O)[C@H](O)[C@H]3O)[C@@H](O)[C@@H]2O)[C@H](O)[C@H](O)[C@H]1O [Kaempferol-3-O-(2''-O-β-D-glucopyl)-β-D-rutinoside],229E Inhibition rate,,13.6%
CC(C)C[C@@H](O)C(=O)O [(R)-Leucic acid],229E Inhibition rate,,39%
CCOC(=O)/C=C/c1ccc(O)cc1 [p-Coumaric Acid Ethyl Ester],229E Inhibition rate,,23%
O=c1cc(-c2ccc(O)c(O)c2)oc2cc(O)c([C@@H]3O[C@H](CO)[C@@H](O)[C@H](O)[C@H]3O)c(O)c12 [Isoorientin],229E Inhibition rate,,51.3%
CC(CCC(=O)O)C(=O)O (stereo not shown) [2-Methylpentanedioic acid],229E Inhibition rate,,38.7%
CCCCCCCC(=O)O [Octanoic acid],229E Inhibition rate,,40.1%
O=C(CCc1ccc(O)c(O)c1)NCCCNCCCCNCCCNC(=O)CCc1ccc(O)c(O)c1 [Kukoamine A],229E Inhibition rate,,11.3%
COc1cc(O[C@@H]2O[C@H](CO[C@@H]3O[C@H](CO)[C@@H](O)[C@H](O)[C@H]3O)[C@@H](O)[C@H](O)[C@H]2O)c2c(O)c3c(=O)oc(C)cc3cc2c1 [Cassiaside C],229E Inhibition rate,,29.7%
Nc1ncnc2c1ncn2[C@H]1C[C@H](O)[C@@H](CO)O1 [2'-Deoxyadenosine monohydrate],229E Inhibition rate,"229E Inhibition rate, 24 h",8.6%
O=c1cccccc1O [Tropolone],229E Inhibition rate,,5%
O=C1O[C@H]([C@@H](O)CO)C(O)=C1O[C@@H]1O[C@H](CO)[C@@H](O)[C@H](O)[C@H]1O [2-O-β-D-Glucopyranosyl-L-ascorbic acid],229E Inhibition rate,,10.6%
O=C(CC(O)(CC(=O)OCc1ccc(O[C@@H]2O[C@H](CO)[C@@H](O)[C@H](O)[C@H]2O)cc1)C(=O)O)OCc1ccc(O[C@@H]2O[C@H](CO)[C@@H](O)[C@H](O)[C@H]2O)cc1 [Parishin C],229E Inhibition rate,,21.5%
COc1cc2c(cc1O)-c1c(OC)c(O)cc3c1[C@H](C2)NCC3 [Laetanine],229E Inhibition rate,,6.3%
CC(C)=CCC[C@@H](C)[C@H]1CC[C@H]2[C@@H]3CC=C4C[C@@H](O)CC[C@]4(C)[C@H]3CC[C@]12C [Desmosterol],229E Inhibition rate,,29.1%
CC(C)=CCc1c(O)ccc(C(=O)[C@@H]2[C@@H](c3c(O)cc(O)c4c(=O)c(CC=C(C)C)c(-c5ccc(O)cc5O)oc34)C=C(C)C[C@H]2c2ccc(O)cc2O)c1O [Kuwanon H],229E Inhibition rate,,0%
CC(C)(C)CC(C)(C)c1ccc(O)cc1 [4-tert-Octylphenol],229E Inhibition rate,,5.2%
CCCCC[C@H](O)/C=C/[C@H]1C(=O)C[C@H](O)[C@@H]1C/C=C\CCCC(=O)O [Prostaglandin D2],229E Inhibition rate,,17%
CC(=O)O[C@]12CCC(C(=O)O)=CC[C@]13CC[C@H]2[C@@](C)(/C=C/C=C(\C)C(=O)O)OC3=O [Pseudolaric Acid C2],229E Inhibition rate,,7.8%
O=C(/C=C/c1ccc(O)c(O)c1)O[C@@H](C(=O)O)[C@@H](OC(=O)/C=C/c1ccc(O)c(O)c1)C(=O)O [L-Chicoric Acid],229E Inhibition rate,"229E Inhibition rate, 24 h",24.1%
O=C1N[C@@H]2[C@@H](O)[C@@H](O)[C@H](O)[C@@H](CO)N2C1=O [Kifunensine],229E Inhibition rate,,13.3%
CCCCCCCCOC(=O)c1cc(O)c(O)c(O)c1 [Octyl gallate],229E Inhibition rate,,47.6%
CCCCCCCCCCCCCCCCCCCCCCCCC(=O)O [Pentacosanoic acid],229E Inhibition rate,,12.4%
O=C(O)Cn1ccnc1 [Imidazol-1-yl-acetic acid],229E Inhibition rate,,10.3%
CC(=O)c1cc2c(CO)cc(O)cc2oc1=O [Armillarisin A],229E Inhibition rate,,17.6%
COc1ccc(-c2cc(=O)c3c(O)cc(O[C@@H]4O[C@H](CO[C@@H]5O[C@@H](C)[C@H](O)[C@@H](O)[C@H]5O)[C@@H](O)[C@H](O)[C@H]4O)cc3o2)cc1 [Linarin],229E Inhibition rate,,7.6%
COc1ccc(-c2coc3cc(O[C@@H]4O[C@H](CO)[C@@H](O)[C@H](O)[C@H]4O)c(OC)c(O)c3c2=O)cc1O [Iristectorin A],229E Inhibition rate,,15.7%
COc1cc2c(cc1OC)-c1cc3ccc4c(c3c[n+]1CC2)OCO4 [Epiberberine (chloride)],229E Inhibition rate,,18.2%
CC(=O)N[C@@H](Cc1ccccc1)C(=O)O [N-Acetyl-L-phenylalanine],229E Inhibition rate,,5.6%
CCCCCCCC(=O)CCc1ccc(O)c(OC)c1 [Paradol],229E Inhibition rate,,25%
Cc1cn([C@H]2C[C@H](O)[C@@H](COP(=O)(O)O)O2)c(=O)[nH]c1=O [Thymidine-5'-monophosphate (disodium) salt],229E Inhibition rate,,15.5%
CC(C)(O)[C@H](O)COc1c2ccoc2cc2oc(=O)ccc12 [Oxypeucedanin hydrate],229E Inhibition rate,,17%
CN1[C@H]2C[C@H](OC(=O)[C@H](CO)c3ccccc3)C[C@@H]1[C@@H](O)C2 [Anisodamine],229E Inhibition rate,"229E Inhibition rate, 24 h",10.7%
CC(=O)N[C@@H]1[C@@H](O)[C@H](O)[C@@H](CO)O[C@@H]1O [N-Acetyl-D-glucosamine],229E Inhibition rate,,11.1%

# Pulled one by one from the entries so far, two records:
compound,measurement,setting,value
CC(=O)N[C@@H](Cc1ccccc1)C(=O)O [N-Acetyl-L-phenylalanine],229E Inhibition rate,,5.6%
CC(=O)c1cc2c(CO)cc(O)cc2oc1=O [Armillarisin A],229E Inhibition rate,,17.6%
